From publication PMC4884984, “Identification of approved and investigational drugs that inhibit hypoxia-inducible factor-1 signaling” (Oncotarget, 2016) come the findings set out here.

This assay has as its system HIF-1α–NanoLuc. Briefly: HIF-1α–NanoLuc reporter gene assay (qHTS primary and confirmatory screens). In kind it is cell-based. The conditions noted are these: Homo sapiens; Table S1; primary screen, hypoxia 1% O2, 18 h. A general note: Reporter assays use an easily measured gene product as a stand-in for the process of interest.

As a reminder, the IC50 is the concentration at which inhibition is half-maximal. Higher therefore signals lower potency. The molecule `O=C(CCCCCCC(=O)Nc1ccccc1)NO` [Vorinostat] came in with an IC50 of 1500 nM.
